# Results taken from patent publication US5389644A, “1,4-dihydropyridine compounds” (priority 1992, dated 1995).
# Columns and labels:
# KB-A1 = experiment: Cytotoxicity: reversal of resistance to adriamycin (reversion factor), line KB-A1; format: cell-based, Human
# Protocol: The parameter measured is the cytotoxicity of the antitumour drug, quantified in the absence and in the presence of the reversing compound. […] The compounds tested for their capacity to reverse the resistance are added at the same time as the cytotoxic agent. The cells are then incubated for 4 days.
# DC-3F/AD = experiment: Cytotoxicity: reversal of resistance to actinomycin D (reversion factor), line DC-3F/AD; format: cell-based, Chinese hamster
# Protocol: The parameter measured is the cytotoxicity of the antitumour drug, quantified in the absence and in the presence of the reversing compound. Two resistant cell lines were used: 1 Chinese hamster lung line, DC-3F/AD, the resistance of which was induced by actinomycin D. […] The compounds tested for their capacity to reverse the resistance are added at the same time as the cytotoxic agent. The cells are then incubated for 4 days.
structure (smiles),measurement,setting,value
"COC(=O)C1=C(C)NC(C)=C(C(=O)OC)C1c1ccccc1[N+](=O)[O-] [NIFEDIPINE, nifedipine, reference compound]",reversion factor (RF),KB-A1; compound 1 μM,1.0
same,reversion factor (RF),KB-A1; compound 5 μM,1.0
same,reversion factor (RF),DC-3F/AD; compound 1 μM,1.2
same,reversion factor (RF),DC-3F/AD; compound 5 μM,5.8
